Laboratory results as given in the supplement of paper PMC4604168 (melanoma cell lines).
The other results are listed elsewhere or left out. Many values rest on one well or one pass, so single values are uncertain.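 Cells were imaged in 1,536-well plates, and nuclei stained with an antibody against cleaved PARP were counted against all DNA-stained nuclei to give the apoptosis fraction. Screening doses were chosen to leave most cells alive, and resting and induced cleaved-PARP levels differ strongly between cell lines.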

Assays:
Experiment in all cases: cleaved PARP positive nuclei fraction relative to DMSO control; melanoma cells; higher = more apoptosis
Settings in all cases: library dose: low library concentration; 72 h
501Mel = system: 501Mel
A101D = system: A101D
A2058 = system: A2058
A375 = system: A375
C32 = system: C32
CBRC013 = system: CBRC013 (line from a melanoma biopsy)
CBRC014 = system: CBRC014 (line from a melanoma biopsy)
CBRC016 = system: CBRC016 (line from a melanoma biopsy)
CBRC017 = system: CBRC017 (line from a melanoma biopsy)
CBRC034 = system: CBRC034 (line from a melanoma biopsy)
COLO792 = system: COLO792
COLO800 = system: COLO800
COLO829 = system: COLO829
G361 = system: G361
IPC-298 = system: IPC-298
IST-MEL1 = system: IST-MEL1
LB2518-MEL = system: LB2518-MEL
LOXIMVI = system: LOXIMVI

Compound | cleaved PARP positive nuclei fraction (501Mel) | cleaved PARP positive nuclei fraction (A101D) | cleaved PARP positive nuclei fraction (A2058) | cleaved PARP positive nuclei fraction (A375) | cleaved PARP positive nuclei fraction (C32) | cleaved PARP positive nuclei fraction (CBRC013) | cleaved PARP positive nuclei fraction (CBRC014) | cleaved PARP positive nuclei fraction (CBRC016) | cleaved PARP positive nuclei fraction (CBRC017) | cleaved PARP positive nuclei fraction (CBRC034) | cleaved PARP positive nuclei fraction (COLO792) | cleaved PARP positive nuclei fraction (COLO800) | cleaved PARP positive nuclei fraction (COLO829) | cleaved PARP positive nuclei fraction (G361) | cleaved PARP positive nuclei fraction (IPC-298) | cleaved PARP positive nuclei fraction (IST-MEL1) | cleaved PARP positive nuclei fraction (LB2518-MEL) | cleaved PARP positive nuclei fraction (LOXIMVI)
O=C1NC(=O)/C(=C/c2ccc(-c3ccc(F)cc3O)o2)S1 + Oc1nc(-c2ccc(C(F)(F)F)cc2)nc2c1CSCC2 [XAV939] (first compound 1 µM, partner dose 2 µM) | 77.9% | 86.1% | 79% | 94.5% | 117% | 199% | 88.3% | 78.3% | 152% | 46.1% | 137% | 137% | 77.6% | 57% | 87.7% | 32.8% | 175% | 71%
COc1cc(N2CCC(N3CCN(C)CC3)CC2)ccc1Nc1ncc(Cl)c(Nc2ccccc2S(=O)(=O)C(C)C)n1 + Cn1cc(/C=C2\C(=O)Nc3cccnc32)c2ccccc21 [GW441756] (first compound 0.08 µM, partner dose 0.4 µM) | 90% | 242% | 125% | 201% | 189% | 61.6% | 104% | 42.1% | 106% | 150% | 103% | 55.5% | 61.6% | 91.9% | 104% | 174% | 70.8% | 37%
O=C(O)C(=O)Nc1sc2c(c1C(=O)O)CCNC2 + O=c1cc(-c2cccc3c2Sc2ccccc2S3)oc(N2CCOCC2)c1 [KU55933] (first compound 1.66667 µM, partner dose 1 µM) | 113% | 54.3% | 63.2% | 315% | 132% | 76% | 78.4% | 56.3% | 63.8% | 168% | 57.3% | 112% | 84.7% | 19.7% | 111% | 40.3% | 72.1% | 2830%
O=C(O)c1ccc(-c2c[nH]c3ncc(-c4ccccc4)cc23)cc1C1CCCC1 + O=C(Nc1ccccc1)c1cc([N+](=O)[O-])ccc1Cl [GW9662] (first compound 0.16 µM, partner dose 2 µM) | 127% | 67.6% | 117% | 77.3% | 83.9% | 54.7% | 93.6% | 99.4% | 93.4% | 82.5% | 78.7% | 138% | 219% | 141% | 83.1% | 39.2% | 238% | 124%
Oc1cc(-c2nc(-c3ccccc3)[nH]c2-c2ccncc2)ccc1Cl + Oc1nc(-c2ccc(C(F)(F)F)cc2)nc2c1CSCC2 [XAV939] (first compound 0.2 µM, partner dose 2 µM) | 179% | 74.8% | 125% | 194% | 115% | 43.5% | 88.5% | 53.4% | 76.3% | 284% | 72.6% | 159% | 106% | 121% | 61.9% | 49.9% | 92.4% | 48.5%
COc1cc2c(Oc3ccc4[nH]c(C)cc4c3F)ncnc2cc1OCCCN1CCCC1 [cediranib] + COc1cc(N2CCC(N3CCN(C)CC3)CC2)ccc1Nc1ncc(Cl)c(Nc2ccccc2S(=O)(=O)C(C)C)n1 [NVP-TAE684] (first compound 0.4 µM, partner dose 0.08 µM) | 171% | 114% | 194% | 187% | 140% | 91% | 103% | 82.3% | 78.5% | 87.4% | 164% | 205% | 44.5% | 106% | 55.8% | 191% | 166% | 132%
O=C(Nc1ccccc1)c1cc([N+](=O)[O-])ccc1Cl + O=c1cc(-c2cccc3c2Sc2ccccc2S3)oc(N2CCOCC2)c1 [KU55933] (first compound 2 µM, partner dose 1 µM) | 68.3% | 106% | 63.1% | 17.4% | 123% | 36.6% | 93.9% | 39.3% | 78.9% | 144% | 130% | 156% | 85.6% | 82.5% | 124% | 87.7% | 73.1% | 41.6%
COC(=O)c1sccc1S(=O)(=O)Nc1ccc(Nc2ccccc2)cc1OC + Cn1cc(/C=C2\C(=O)Nc3cccnc32)c2ccccc21 [GW441756] (first compound 1 µM, partner dose 0.4 µM) | 46.2% | 62.6% | 137% | 134% | 271% | 246% | 89.9% | 93% | 92.2% | 22.5% | 67.7% | 75.2% | 80.7% | 111% | 26.8% | 244% | 75.1% | 55%
CCc1ccc(CCOc2ccc(CC3SC(=O)NC3=O)cc2)nc1 (centres undefined) [pioglitazone] + COc1cc2ncnc(Nc3ccc(Oc4ccccc4)cc3)c2cc1OC [SrcI1] (first compound 2 µM, partner dose 2 µM) | 74.6% | 125% | 145% | 167% | 40.2% | 26.5% | 79.3% | 111% | 75% | 170% | 53.5% | 97.2% | 76.5% | 31.6% | 130% | 87% | 61.5% | 2830%
COc1ccc(-c2ccc3c(N4CCOCC4)nc(N4C[C@@H](C)O[C@@H](C)C4)nc3n2)cc1CO + c1cc(-c2cnn3cc(-c4ccc(OCCN5CCCCC5)cc4)cnc23)ccn1 [Dorsomorphin] (first compound 0.02 µM, partner dose 0.4 µM) | 87.9% | 55.2% | 90.3% | 298% | 40.5% | 327% | 96.4% | 43.6% | 89.8% | 53.5% | 127% | 86% | 183% | 113% | 66.1% | 170% | 432% | 1890%
O=C(Nc1ccccc1)c1cc([N+](=O)[O-])ccc1Cl + Oc1nc(-c2ccc(C(F)(F)F)cc2)nc2c1CSCC2 [XAV939] (first compound 2 µM, partner dose 2 µM) | 75.9% | 297% | 115% | 85% | 165% | 619% | 114% | 34.9% | 69.7% | 83% | 73.3% | 58.2% | 87.6% | 120% | 54.2% | 41.2% | 83.5% | 58.8%
COc1ccc2c(c1)CCC1C2CCC2(C)C(NCCCCCCN3C(=O)C=CC3=O)CCC12 (centres undefined) + CCN(CC)CCCCNc1ncc2cc(-c3cc(OC)cc(OC)c3)c(NC(=O)NC(C)(C)C)nc2n1 [PD173074] (first compound 0.4 µM, partner dose 0.1 µM) | 86.2% | 159% | 131% | 50.4% | 95.9% | 159% | 151% | 108% | 94.5% | 101% | 75% | 187% | 40.9% | 138% | 86.9% | 257% | 94.3% | 68.5%
COc1ccc2c(c1)CCC1C2CCC2(C)C(NCCCCCCN3C(=O)C=CC3=O)CCC12 (centres undefined) + COc1ccc(-c2ccc3c(N4CCOCC4)nc(N4C[C@@H](C)O[C@@H](C)C4)nc3n2)cc1CO [KU0063794] (first compound 0.4 µM, partner dose 0.02 µM) | 89.7% | 42.7% | 138% | 83.3% | 49.6% | 340% | 108% | 114% | 81.3% | 66.2% | 97.3% | 106% | 33.7% | 122% | 69% | 47% | 93.3% | 68.3%
Cc1cc([N+](=O)[O-])ccc1NS(=O)(=O)c1cc(Cl)ccc1Cl + CC(C)CCN1c2nc(Nc3cc(F)c(O)c(F)c3)ncc2N(C)C(=O)C1C [BID1870] (first compound 1 µM, partner dose 0.2 µM) | 75.6% | 139% | 168% | 119% | 30.1% | 233% | 197% | 1850% | 454% | 206% | 204% | 104% | 190% | 78.1% | 45.7% | 70.6% | 222% | 70.1%
O=C(Nc1ccccc1)c1cc([N+](=O)[O-])ccc1Cl + CCN(CC)CCCCNc1ncc2cc(-c3cc(OC)cc(OC)c3)c(NC(=O)NC(C)(C)C)nc2n1 [PD173074] (first compound 2 µM, partner dose 0.1 µM) | 167% | 48.8% | 79.9% | 57% | 72.6% | 369% | 92.1% | 51.9% | 206% | 115% | 96.8% | 119% | 139% | 175% | 171% | 56.7% | 87% | 155%
Oc1cc(-c2nc(-c3ccccc3)[nH]c2-c2ccncc2)ccc1Cl + CC(C)CCN1c2nc(Nc3cc(F)c(O)c(F)c3)ncc2N(C)C(=O)C1C [BID1870] (first compound 0.2 µM, partner dose 0.2 µM) | 83.8% | 132% | 66.7% | 382% | 51.2% | 150% | 115% | 20.8% | 70% | 90.5% | 94.6% | 102% | 90.9% | 112% | 31.2% | 126% | 64.7% | 57.2%
CCc1ccc(CCOc2ccc(CC3SC(=O)NC3=O)cc2)nc1 (centres undefined) [pioglitazone] + O=C1NC(=O)/C(=C/c2ccc(-c3ccc(F)cc3O)o2)S1 [AS252424] (first compound 2 µM, partner dose 1 µM) | 171% | 114% | 100% | 53.3% | 51% | 149% | 95.7% | 115% | 79.2% | 65.4% | 95.2% | 88.2% | 12.4% | 578% | 41.1% | 214% | 85.2% | 46.8%
O=C(O)C(=O)Nc1sc2c(c1C(=O)O)CCNC2 + c1cc(-c2cnn3cc(-c4ccc(OCCN5CCCCC5)cc4)cnc23)ccn1 [Dorsomorphin] (first compound 1.66667 µM, partner dose 0.4 µM) | 80.3% | 122% | 144% | 72.4% | 64.1% | 258% | 89.2% | 73.8% | 136% | 53% | 75% | 65.2% | 82.3% | 85.2% | 81.1% | 56.9% | 239% | 29.9%

2 entries picked at random from the list so far:
Compound | cleaved PARP positive nuclei fraction (501Mel) | cleaved PARP positive nuclei fraction (A101D) | cleaved PARP positive nuclei fraction (A2058) | cleaved PARP positive nuclei fraction (A375) | cleaved PARP positive nuclei fraction (C32) | cleaved PARP positive nuclei fraction (CBRC013) | cleaved PARP positive nuclei fraction (CBRC014) | cleaved PARP positive nuclei fraction (CBRC016) | cleaved PARP positive nuclei fraction (CBRC017) | cleaved PARP positive nuclei fraction (CBRC034) | cleaved PARP positive nuclei fraction (COLO792) | cleaved PARP positive nuclei fraction (COLO800) | cleaved PARP positive nuclei fraction (COLO829) | cleaved PARP positive nuclei fraction (G361) | cleaved PARP positive nuclei fraction (IPC-298) | cleaved PARP positive nuclei fraction (IST-MEL1) | cleaved PARP positive nuclei fraction (LB2518-MEL) | cleaved PARP positive nuclei fraction (LOXIMVI)
Oc1cc(-c2nc(-c3ccccc3)[nH]c2-c2ccncc2)ccc1Cl + CC(C)CCN1c2nc(Nc3cc(F)c(O)c(F)c3)ncc2N(C)C(=O)C1C [BID1870] (first compound 0.2 µM, partner dose 0.2 µM) | 83.8% | 132% | 66.7% | 382% | 51.2% | 150% | 115% | 20.8% | 70% | 90.5% | 94.6% | 102% | 90.9% | 112% | 31.2% | 126% | 64.7% | 57.2%
COc1cc(N2CCC(N3CCN(C)CC3)CC2)ccc1Nc1ncc(Cl)c(Nc2ccccc2S(=O)(=O)C(C)C)n1 + Cn1cc(/C=C2\C(=O)Nc3cccnc32)c2ccccc21 [GW441756] (first compound 0.08 µM, partner dose 0.4 µM) | 90% | 242% | 125% | 201% | 189% | 61.6% | 104% | 42.1% | 106% | 150% | 103% | 55.5% | 61.6% | 91.9% | 104% | 174% | 70.8% | 37%
